± gives the standard deviation of the averaged measurements. The list shows a part of the results. The data scatter; read single values as rough.
Tested on: Plasmodium vivax liver stage (primary human hepatocyte culture)
Experiment: schizont net growth area inhibition (% inhibition); higher = more active against liver schizonts
Settings: 10 µM; assay mode: Prophylactic (treated before or shortly after infection), fixed day 6 post-infection

Compound | schizont net growth area inhibition
Cc1ccc2nc(Cl)c(CNCc3cccs3)cc2c1 | -0.3
CC(C)(CN)c1nc(-c2ccc(Cl)c(O)c2)c(-c2ccnc(N)n2)[nH]1 | 50.8
O[C@H](c1cc(C(F)(F)F)nc2c(C(F)(F)F)cccc12)[C@@H]1CCCCN1 | 63.2 ± 6.2
CCOC(=O)c1cnc2c(C)cc(C)cc2c1Nc1ccc(OC)c(OC)c1 | -4.8
Nc1nc(O)c(Br)c(-c2ccccc2)n1 | 20.8
O=C(NC1CCN(Cc2ccccc2)CC1)c1cc(-c2ccncc2)nc2ccc(Cl)cc12 | 12.1
OC[C@H]1O[C@@H](n2c3ccc(Cl)cc3c3c(-c4cc5ccccc5o4)ncnc32)C(O)[C@H]1O (stereo partly drawn) | -53.1
Nc1ncnc2c1ncn2C[C@@H](O)[C@@H](O)C(=O)O | 5.6
CNc1cc(C)nc(C2CN(C(=O)c3n[nH]c4ccccc34)CCO2)c1 (stereo not drawn) | 8
Cc1ccc(NC(=O)CC2COc3ccccc3O2)cc1Cl (stereo not drawn) | 22.9
COc1cc2cc(C(=O)Nc3ccccc3)c(N)nc2cc1OC | 57.9
CCc1ccc(C(NCc2nc(N)nc(N(C)C)n2)C(C)C)cc1 (stereo not drawn) | -57.4
OC(CNCC1CCCO1)Cn1c2ccc(Cl)cc2c2cc(Cl)ccc21 (stereo not drawn) | 14.2
c1ccc(Cn2c(N=Nc3c(Nc4ccccc4)ccc4ccccc34)nc3ccccc32)cc1 | 89.6
Oc1ccccc1CN1CCC2(CCCN(Cc3ccccc3F)C2)C1 (stereo not drawn) | 100
Cc1c(C)n(Cc2ccc(F)cc2)c2ccc(C(=O)NCc3ccco3)cc12 | 35.9
CC(C)N=C(N)N=C(N)Nc1ccc(Cl)cc1 | 70.5
Cc1cc(OCC(=O)NCc2ccccc2)c2cc(Br)ccc2n1 | 23.3

Two entries from above, reformatted.
Compound	schizont net growth area inhibition
Oc1ccccc1CN1CCC2(CCCN(Cc3ccccc3F)C2)C1 (stereo not drawn)	100
Cc1c(C)n(Cc2ccc(F)cc2)c2ccc(C(=O)NCc3ccco3)cc12	35.9

Reference: the supplement of paper PMC8497498
